Tested on: 5-HT7 receptor in the dog coronary artery
Assay: antagonism of 5-HT-induced relaxation in endothelium-denuded canine coronary artery rings precontracted with PGF2α
Type: cell-based, mongrel dogs
Conditions: rings precontracted with PGF2α (10µM)
Procedure: Hearts were obtained from mongrel dogs anesthetized with sodium pentobarbital (30mg/kg, i.v.) and placed in oxygenated modified Krebs' solution of the following composition (millimolar): NaCl, 118; KCl, 4.6; CaCl2, 1.6; KH2PO4, 1.2; MgSO4 1.2, glucose, 10; NaHCO3 24.8 (pH 7.4). The left anterior descending and circumflex coronary arteries were dissected from the hearts, cleaned of fat and adhering tissue and cut into rings (approximately 2-3mm outer diameter and 4-5mm in length). The intimal surface of the rings was gently rubbed with a pair of forceps to remove the endothelium. […] Tissues were equilibrated for 1 hour under an initial optimal passive force of 4g determined previously from length-tension experiments. […] Isometric force was measured with Statham UC3 force transducers connected to a Beckman dynograph (R611). […]
Tissues prepared as described in Example 1 were precontracted with PGF2α (10µM) which produced a tonic contraction that remained at or above 92.8±2.1% (n=14) of the original maximum force throughout the experiment. […] In some experiments contraction was measured in tissues under basal tone upcn the cumulative addition of 5-HT. […]
All results are expressed as mean ± S.E. where "n" represents the number of rings examined. […] The relaxation data is expressed as percent relaxation of the contraction produced by PGF2α . […]

| Structure (SMILES) | (slope) of the Schild regression |
| --- | --- |
| CC(C)n1cc2c3c(cccc31)C1CC(C(=O)NC3CCCC3O)CN(C)C1C2 (centres unmarked) [COMPOUND IV] | 0.98 |
| CC(O)C(C)OC(=O)C1CC2c3cccc4c3c(cn4C(C)C)CC2N(C)C1 (centres unmarked) [COMPOUND II] | 0.92 |

Reference: patent EP0738513A1, “Method for using ergoline compounds to effect physiological and pathological functions at the 5-HT7 receptor” (ELI LILLY AND COMPANY, priority 1995, dated 1996)
